Experimental data reported in the supplement of paper PMC10849652.
This is one part of the list.

Chains of the proteins cited; added tags and fusions are not shown. Lines headed by an entry give the natural chain unless they say otherwise; changes in a name come on top.
UniProt O75081: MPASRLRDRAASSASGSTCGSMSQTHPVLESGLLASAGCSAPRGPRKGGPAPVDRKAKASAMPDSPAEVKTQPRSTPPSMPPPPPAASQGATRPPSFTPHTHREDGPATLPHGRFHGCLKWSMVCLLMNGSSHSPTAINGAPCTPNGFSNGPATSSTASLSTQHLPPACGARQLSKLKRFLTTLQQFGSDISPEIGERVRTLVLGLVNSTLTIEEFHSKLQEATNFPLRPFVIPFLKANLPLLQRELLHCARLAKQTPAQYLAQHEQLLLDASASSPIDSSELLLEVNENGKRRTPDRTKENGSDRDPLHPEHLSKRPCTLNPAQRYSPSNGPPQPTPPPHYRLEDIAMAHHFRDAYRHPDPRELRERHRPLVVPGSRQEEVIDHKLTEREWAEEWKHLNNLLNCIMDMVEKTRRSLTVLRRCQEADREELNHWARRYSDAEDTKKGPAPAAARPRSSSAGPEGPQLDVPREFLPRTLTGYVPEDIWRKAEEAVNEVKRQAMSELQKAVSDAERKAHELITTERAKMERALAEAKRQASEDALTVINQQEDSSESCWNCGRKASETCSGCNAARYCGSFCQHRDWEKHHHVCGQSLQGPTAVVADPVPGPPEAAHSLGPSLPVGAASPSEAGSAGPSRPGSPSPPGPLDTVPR
UniProt O95810: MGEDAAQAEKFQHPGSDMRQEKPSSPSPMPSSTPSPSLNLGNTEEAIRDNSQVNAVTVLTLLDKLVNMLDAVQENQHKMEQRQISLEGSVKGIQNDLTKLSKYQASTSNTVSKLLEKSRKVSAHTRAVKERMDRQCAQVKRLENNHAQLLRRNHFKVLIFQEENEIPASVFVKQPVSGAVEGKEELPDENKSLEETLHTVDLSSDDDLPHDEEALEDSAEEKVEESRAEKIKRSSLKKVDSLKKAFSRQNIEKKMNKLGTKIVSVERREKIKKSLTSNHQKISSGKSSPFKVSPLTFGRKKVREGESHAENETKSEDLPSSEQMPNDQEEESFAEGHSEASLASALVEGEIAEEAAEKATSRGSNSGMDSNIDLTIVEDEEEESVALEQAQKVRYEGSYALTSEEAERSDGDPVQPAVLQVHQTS
UniProt Q7Z6B0: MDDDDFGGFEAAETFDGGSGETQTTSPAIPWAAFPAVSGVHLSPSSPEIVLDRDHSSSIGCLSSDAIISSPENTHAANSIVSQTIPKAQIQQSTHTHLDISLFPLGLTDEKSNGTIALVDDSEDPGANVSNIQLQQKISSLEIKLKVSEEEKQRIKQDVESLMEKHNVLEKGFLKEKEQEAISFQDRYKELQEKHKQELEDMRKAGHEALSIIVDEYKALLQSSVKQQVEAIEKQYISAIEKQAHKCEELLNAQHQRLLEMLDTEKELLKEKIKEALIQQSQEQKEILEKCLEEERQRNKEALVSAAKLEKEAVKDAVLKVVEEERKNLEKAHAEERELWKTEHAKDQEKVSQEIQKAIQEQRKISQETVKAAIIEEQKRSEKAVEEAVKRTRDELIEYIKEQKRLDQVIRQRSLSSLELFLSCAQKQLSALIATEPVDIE
UniProt P08174: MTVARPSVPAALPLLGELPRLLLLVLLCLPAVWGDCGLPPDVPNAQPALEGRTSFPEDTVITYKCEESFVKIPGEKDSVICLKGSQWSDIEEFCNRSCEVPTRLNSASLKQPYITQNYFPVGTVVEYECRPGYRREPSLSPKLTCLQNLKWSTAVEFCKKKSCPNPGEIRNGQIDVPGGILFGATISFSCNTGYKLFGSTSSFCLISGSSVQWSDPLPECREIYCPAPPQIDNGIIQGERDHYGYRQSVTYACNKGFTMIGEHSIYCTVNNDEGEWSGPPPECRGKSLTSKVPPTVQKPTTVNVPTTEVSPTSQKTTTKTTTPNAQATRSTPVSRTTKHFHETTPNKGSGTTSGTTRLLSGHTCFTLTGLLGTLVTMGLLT
UniProt Q9H257: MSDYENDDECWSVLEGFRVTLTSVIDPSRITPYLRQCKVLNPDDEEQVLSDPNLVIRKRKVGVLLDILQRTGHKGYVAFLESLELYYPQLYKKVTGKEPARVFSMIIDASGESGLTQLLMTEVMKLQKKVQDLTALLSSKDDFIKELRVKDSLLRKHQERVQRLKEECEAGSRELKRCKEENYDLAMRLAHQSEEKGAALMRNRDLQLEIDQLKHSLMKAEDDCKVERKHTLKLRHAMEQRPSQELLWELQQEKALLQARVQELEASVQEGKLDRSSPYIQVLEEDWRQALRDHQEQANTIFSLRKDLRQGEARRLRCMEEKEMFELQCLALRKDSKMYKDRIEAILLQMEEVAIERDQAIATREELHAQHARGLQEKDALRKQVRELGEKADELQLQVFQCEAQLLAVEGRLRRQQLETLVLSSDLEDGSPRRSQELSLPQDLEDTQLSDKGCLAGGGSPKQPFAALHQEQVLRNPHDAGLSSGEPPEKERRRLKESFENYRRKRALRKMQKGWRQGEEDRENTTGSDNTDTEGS
UniProt P55212: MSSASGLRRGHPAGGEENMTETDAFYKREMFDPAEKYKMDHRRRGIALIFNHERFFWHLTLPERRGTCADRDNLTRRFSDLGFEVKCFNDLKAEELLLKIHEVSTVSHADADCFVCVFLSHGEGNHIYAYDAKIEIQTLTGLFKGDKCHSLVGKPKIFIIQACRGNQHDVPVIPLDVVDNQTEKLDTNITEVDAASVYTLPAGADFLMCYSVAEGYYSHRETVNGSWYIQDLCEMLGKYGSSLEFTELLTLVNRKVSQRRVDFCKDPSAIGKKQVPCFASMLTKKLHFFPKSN
UniProt Q8N4T8: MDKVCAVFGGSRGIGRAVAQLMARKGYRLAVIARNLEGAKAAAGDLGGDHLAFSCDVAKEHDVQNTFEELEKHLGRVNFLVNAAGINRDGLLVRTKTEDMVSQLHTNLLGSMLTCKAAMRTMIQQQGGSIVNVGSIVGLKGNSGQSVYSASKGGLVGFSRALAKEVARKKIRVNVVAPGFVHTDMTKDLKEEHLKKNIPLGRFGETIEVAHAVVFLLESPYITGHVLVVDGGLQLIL
UniProt Q99832: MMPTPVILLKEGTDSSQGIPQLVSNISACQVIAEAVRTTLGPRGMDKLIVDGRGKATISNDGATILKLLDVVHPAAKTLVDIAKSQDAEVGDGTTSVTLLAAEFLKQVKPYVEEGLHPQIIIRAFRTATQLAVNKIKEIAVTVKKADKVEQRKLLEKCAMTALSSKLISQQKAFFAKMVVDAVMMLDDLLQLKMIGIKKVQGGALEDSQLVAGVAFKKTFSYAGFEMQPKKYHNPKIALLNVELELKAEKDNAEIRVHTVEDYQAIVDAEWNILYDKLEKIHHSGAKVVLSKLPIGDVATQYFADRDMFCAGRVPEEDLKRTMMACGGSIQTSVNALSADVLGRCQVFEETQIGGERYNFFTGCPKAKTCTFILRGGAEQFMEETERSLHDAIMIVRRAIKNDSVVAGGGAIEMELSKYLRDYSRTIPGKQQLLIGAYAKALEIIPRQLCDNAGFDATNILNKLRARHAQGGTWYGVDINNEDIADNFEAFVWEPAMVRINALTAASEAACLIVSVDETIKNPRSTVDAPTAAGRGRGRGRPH
UniProt P45973, whole entry, looked up: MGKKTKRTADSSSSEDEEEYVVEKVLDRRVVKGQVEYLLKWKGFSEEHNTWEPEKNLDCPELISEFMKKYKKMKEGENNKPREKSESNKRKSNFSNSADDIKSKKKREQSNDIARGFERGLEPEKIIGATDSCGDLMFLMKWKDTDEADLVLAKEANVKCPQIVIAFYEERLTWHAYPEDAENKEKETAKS
UniProt O60563, whole entry, looked up: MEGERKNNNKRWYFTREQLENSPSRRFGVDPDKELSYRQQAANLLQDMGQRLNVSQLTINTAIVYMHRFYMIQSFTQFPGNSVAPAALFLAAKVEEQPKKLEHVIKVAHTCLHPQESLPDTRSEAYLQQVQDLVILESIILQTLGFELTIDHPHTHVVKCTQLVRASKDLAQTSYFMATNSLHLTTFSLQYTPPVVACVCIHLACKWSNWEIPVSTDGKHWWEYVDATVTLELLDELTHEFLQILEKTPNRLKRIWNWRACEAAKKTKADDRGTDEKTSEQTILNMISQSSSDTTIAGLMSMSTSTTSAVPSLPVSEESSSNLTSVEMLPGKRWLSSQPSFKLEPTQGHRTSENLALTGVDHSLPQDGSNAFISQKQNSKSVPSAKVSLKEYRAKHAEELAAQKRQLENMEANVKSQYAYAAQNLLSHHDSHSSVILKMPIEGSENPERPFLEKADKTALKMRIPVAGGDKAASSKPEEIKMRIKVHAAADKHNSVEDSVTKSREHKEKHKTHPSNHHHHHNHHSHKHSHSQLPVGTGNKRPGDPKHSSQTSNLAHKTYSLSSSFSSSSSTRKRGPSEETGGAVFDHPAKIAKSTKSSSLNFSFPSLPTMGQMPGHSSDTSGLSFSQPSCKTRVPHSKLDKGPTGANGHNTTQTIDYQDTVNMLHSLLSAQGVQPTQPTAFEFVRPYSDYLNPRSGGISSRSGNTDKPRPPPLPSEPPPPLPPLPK
UniProt Q86X55: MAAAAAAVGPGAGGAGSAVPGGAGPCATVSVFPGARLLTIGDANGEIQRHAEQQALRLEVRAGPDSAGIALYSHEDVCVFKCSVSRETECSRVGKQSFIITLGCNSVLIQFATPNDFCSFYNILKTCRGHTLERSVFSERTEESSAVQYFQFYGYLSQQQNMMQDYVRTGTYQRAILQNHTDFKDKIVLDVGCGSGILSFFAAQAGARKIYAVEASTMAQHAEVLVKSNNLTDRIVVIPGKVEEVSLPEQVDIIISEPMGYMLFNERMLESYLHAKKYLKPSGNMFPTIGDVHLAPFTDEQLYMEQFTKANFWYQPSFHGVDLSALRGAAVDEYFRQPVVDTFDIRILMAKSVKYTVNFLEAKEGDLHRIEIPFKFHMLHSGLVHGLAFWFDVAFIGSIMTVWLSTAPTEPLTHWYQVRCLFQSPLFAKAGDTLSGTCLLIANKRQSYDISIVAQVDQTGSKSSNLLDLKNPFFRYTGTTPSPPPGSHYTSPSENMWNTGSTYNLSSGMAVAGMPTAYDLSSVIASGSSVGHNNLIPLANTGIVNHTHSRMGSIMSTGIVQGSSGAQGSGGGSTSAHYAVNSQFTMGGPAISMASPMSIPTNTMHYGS
UniProt Q5T0F9: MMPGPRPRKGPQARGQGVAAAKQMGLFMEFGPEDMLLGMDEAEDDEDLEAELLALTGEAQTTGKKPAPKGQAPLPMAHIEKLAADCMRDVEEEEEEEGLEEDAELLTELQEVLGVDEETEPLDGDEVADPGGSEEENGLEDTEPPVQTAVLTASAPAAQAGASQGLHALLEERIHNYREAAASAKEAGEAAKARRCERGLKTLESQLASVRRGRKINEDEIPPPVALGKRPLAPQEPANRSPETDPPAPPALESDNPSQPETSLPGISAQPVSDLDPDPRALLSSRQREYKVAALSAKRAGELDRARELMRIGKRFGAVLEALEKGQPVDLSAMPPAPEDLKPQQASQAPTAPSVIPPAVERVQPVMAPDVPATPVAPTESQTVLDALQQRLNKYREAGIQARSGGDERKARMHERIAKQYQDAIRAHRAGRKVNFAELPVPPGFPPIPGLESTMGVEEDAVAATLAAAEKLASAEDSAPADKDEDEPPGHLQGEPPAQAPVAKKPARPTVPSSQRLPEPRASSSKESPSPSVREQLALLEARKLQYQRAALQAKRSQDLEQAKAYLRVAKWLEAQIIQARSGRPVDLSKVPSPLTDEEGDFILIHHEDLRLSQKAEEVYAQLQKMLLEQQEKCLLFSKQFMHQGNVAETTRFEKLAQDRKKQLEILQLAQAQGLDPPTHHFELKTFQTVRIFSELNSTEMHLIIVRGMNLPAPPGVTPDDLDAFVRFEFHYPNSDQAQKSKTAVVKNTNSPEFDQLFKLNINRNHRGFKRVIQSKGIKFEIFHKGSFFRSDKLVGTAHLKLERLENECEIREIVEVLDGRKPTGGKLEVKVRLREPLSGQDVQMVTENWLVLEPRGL
UniProt P55211: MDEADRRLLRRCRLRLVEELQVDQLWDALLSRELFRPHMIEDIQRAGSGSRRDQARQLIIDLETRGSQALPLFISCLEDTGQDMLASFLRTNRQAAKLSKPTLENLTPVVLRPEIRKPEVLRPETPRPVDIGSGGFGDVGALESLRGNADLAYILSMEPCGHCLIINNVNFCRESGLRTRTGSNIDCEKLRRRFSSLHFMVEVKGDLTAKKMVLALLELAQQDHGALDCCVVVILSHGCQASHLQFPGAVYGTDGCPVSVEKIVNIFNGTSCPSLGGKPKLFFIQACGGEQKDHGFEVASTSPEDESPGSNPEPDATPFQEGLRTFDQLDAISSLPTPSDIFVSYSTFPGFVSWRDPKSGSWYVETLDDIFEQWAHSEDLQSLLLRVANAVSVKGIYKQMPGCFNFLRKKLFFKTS

Assays:
Assay in all cases: log2 fold change, soluble protein after heating vs DMSO (PISA); higher = thermal stabilisation; K562 lysate, 10 uM; active = over 0.2 and 3.5 SD of the protein, either way, in both replicates (recomputed)
vemurafenib = compound: CCCS(=O)(=O)Nc1ccc(F)c(C(=O)c2c[nH]c3ncc(-c4ccc(Cl)cc4)cc23)c1F [vemurafenib]
Outline: (§1)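 Dounce homogenisation of K562 pellets in PBS pH 7.4 with 1 mM MgCl2 produced a crude extract, used at 1 mg/mL protein. Exposure to 10 μM compound lasted 30 min, and aliquots were then heated for 3 min across 48°C-58°C, pooled and brought to 0.5% NP-40 at 4°C. The supernatant after 21,000xg for 90 min was quantified by TMTpro 16plex LC-MS/MS with channel sums equalised. Duplicate values are given as log-two fold change in thermal stability relative to solvent controls.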

[1] = compound: CCCS(=O)(=O)Nc1ccc(F)c(C(=O)c2c[nH]c3ncc(Cl)cc23)c1F
Outline: as §1

barasertib = compound: CCN(CCCOc1ccc2c(Nc3cc(CC(=O)Nc4cccc(F)c4)[nH]n3)ncnc2c1)CCOP(=O)(O)O [barasertib]
Outline: as §1

[2] = compound: CC[C@@H]1C(=O)N(C)c2cnc(Nc3ccc(C(=O)NC4CCN(C)CC4)cc3OC)nc2N1C1CCCC1
Outline: as §1

volasertib = compound: CC[C@@H]1C(=O)N(C)c2cnc(Nc3ccc(C(=O)N[C@H]4CC[C@H](N5CCN(CC6CC6)CC5)CC4)cc3OC)nc2N1C(C)C [volasertib]
Outline: as §1

[3] = compound: CCn1c(C(=O)N(C2CC2)C2CC2)cc2c3c(ncn3C)c(Nc3cc(C)n(C)n3)nc21
Outline: as §1

[4] = compound: CCn1cc(-c2ccnc3[nH]c(-c4cccc(CN(C)C)c4)cc23)c(-c2ccc(NC(=O)N(C)C)cc2)n1
Outline: as §1

[5] = compound: CN1CCC(CNc2ccc3ncc(-c4cccc(OC(F)(F)F)c4)n3n2)CC1
Outline: as §1

saracatinib = compound: CN1CCN(CCOc2cc(OC3CCOCC3)c3c(Nc4c(Cl)ccc5c4OCO5)ncnc3c2)CC1 [saracatinib]
Outline: as §1

sotrastaurin = compound: CN1CCN(c2nc(C3=C(c4c[nH]c5ccccc45)C(=O)NC3=O)c3ccccc3n2)CC1 [sotrastaurin]
Outline: as §1

alvocidib = compound: CN1CC[C@H](c2c(O)cc(O)c3c(=O)cc(-c4ccccc4Cl)oc23)[C@H](O)C1 [alvocidib]
Outline: as §1

Tubastatin A = compound: CN1CCc2c(c3ccccc3n2Cc2ccc(C(=O)NO)cc2)C1 [Tubastatin A]
Outline: as §1

[6] = compound: CNC(=O)C1=CC=CC=C1NC2=NC(=NC=C2Cl)NC3=C(C=C(C=C3)N4CCOCC4)OC
Outline: as §1

defactinib = compound: CNC(=O)c1ccc(Nc2ncc(C(F)(F)F)c(NCc3nccnc3N(C)S(C)(=O)=O)n2)cc1 [defactinib]
Outline: as §1

[7] = compound: CNc1nc(-c2ccc3c(N)n[nH]c3c2)cc(N2C[C@@H](C(=O)NC3CCCCC3)CC[C@H]2C)n1
Outline: as §1

encorafenib = compound: COC(=O)N[C@@H](C)CNc1nccc(-c2cn(C(C)C)nc2-c2cc(Cl)cc(NS(C)(=O)=O)c2F)n1 [encorafenib]
Outline: as §1

[8] = compound: COC(=O)[C@H](CCSC)NC(=O)C1=C(C=C(C=C1)NC[C@H](CS)N)C2=CC=CC=C2
Outline: as §1

alisertib = compound: COc1cc(Nc2ncc3c(n2)-c2ccc(Cl)cc2C(c2c(F)cccc2OC)=NC3)ccc1C(=O)O [alisertib]
Outline: as §1

[9] = compound: COc1cc2nc(-c3cc(F)ccc3O)nc(N[C@@H]3CNC[C@H]3C(C)(C)O)c2cc1OC
Outline: as §1

gefitinib = compound: COc1cc2ncnc(Nc3ccc(F)c(Cl)c3)c2cc1OCCCN1CCOCC1 [gefitinib]
Outline: as §1

Target	log2 fold change (vemurafenib)	log2 fold change [1]	log2 fold change (barasertib)	log2 fold change [2]	log2 fold change (volasertib)	log2 fold change [3]	log2 fold change [4]	log2 fold change [5]	log2 fold change (saracatinib)	log2 fold change (sotrastaurin)	log2 fold change (alvocidib)	log2 fold change (Tubastatin A)	log2 fold change [6]	log2 fold change (defactinib)	log2 fold change [7]	log2 fold change (encorafenib)	log2 fold change [8]	log2 fold change (alisertib)	log2 fold change [9]	log2 fold change (gefitinib)
CCNY (UniProt Q8ND76)	inactive: -0.011	inactive: 0	inactive: -0.016	inactive: -0.148	inactive: 0.036	inactive: -0.103	inactive: 0.032	inactive: 0.037	inactive: 0.063	inactive: 0.025	inactive: 0.001	inactive: -0.139	inactive: -0.015	inactive: 0.011	inactive: 0.04	inactive: 0.023	inactive: -0.085	inactive: 0.037	inactive: 0.008	inactive: -0.091
CBFA2T3 (UniProt O75081)	inactive: -0.043	inactive: 0.018	inactive: -0.055	inactive: 0.003	inactive: -0.02	inactive: -0.007	inactive: -0.023	inactive: -0.018	inactive: 0.021	inactive: 0.015	inactive: -0.039	inactive: -0.131	inactive: 0.028	inactive: 0.004	inactive: 0.051	inactive: 0.056	inactive: 0.037	inactive: 0.031	inactive: -0.042	inactive: 0.018
CAVIN2 (UniProt O95810)	inactive: -0.011	inactive: -0.006	inactive: 0.003	inactive: 0.041	inactive: 0.026	inactive: 0.002	inactive: -0.038	inactive: 0.04	inactive: 0.013	inactive: -0.005	inactive: 0.015	inactive: 0.052	inactive: -0.004	inactive: 0.011	inactive: 0.04	inactive: 0.028	inactive: -0.046	inactive: 0.009	inactive: -0.004	inactive: -0.007
CCDC91 (UniProt Q7Z6B0)	inactive: -0.006	inactive: -0.007	inactive: -0.006	inactive: 0.024	inactive: -0.003	inactive: -0.03	inactive: 0.074	inactive: -0.026	inactive: 0.02	inactive: 0.003	inactive: 0.028	inactive: -0.004	inactive: -0.012	inactive: 0.01	inactive: -0.047	inactive: 0.02	inactive: -0.057	inactive: 0	inactive: -0.021	inactive: -0.011
CD55 isoform 7 (UniProt P08174)	inactive: 0.004	inactive: -0.057	inactive: 0.044	inactive: -0.024	inactive: 0.03	inactive: -0.074	inactive: -0.06	inactive: 0.043	inactive: 0.009	inactive: 0.003	inactive: -0.044	inactive: 0.093	inactive: -0.071	inactive: -0.017	inactive: 0.024	inactive: -0.028	inactive: 0.002	inactive: -0.096	inactive: 0.02	inactive: 0.062
CARD9 (UniProt Q9H257)	inactive: 0.03	inactive: 0.026	inactive: 0.008	inactive: 0.068	inactive: -0.001	inactive: 0.011	inactive: -0.036	inactive: 0.013	inactive: 0.014	inactive: -0.01	inactive: -0.011	inactive: -0.099	inactive: 0.043	inactive: 0.05	inactive: 0.038	inactive: -0.06	inactive: 0.068	inactive: -0.004	inactive: 0.009	inactive: -0.021
CASP6 (UniProt P55212)	inactive: 0.006	inactive: -0.012	inactive: -0.071	inactive: 0.018	inactive: -0.017	inactive: 0.025	inactive: 0.242	inactive: 0.013	inactive: -0.004	inactive: -0.016	inactive: -0.011	inactive: -0.003	inactive: 0.067	inactive: 0.039	inactive: -0.046	inactive: -0.015	inactive: -0.026	inactive: 0.023	inactive: -0.029	inactive: 0.061
CBR4 (UniProt Q8N4T8)	inactive: 0.034	inactive: 0.051	inactive: 0.018	inactive: 0.091	inactive: -0.033	inactive: 0.008	inactive: 0.33	inactive: -0.021	inactive: -0.062	inactive: 0.017	inactive: 0.013	inactive: 0.036	inactive: -0.065	inactive: -0.016	inactive: 0.048	inactive: 0.033	inactive: -0.056	inactive: 0.064	inactive: -0.014	inactive: 0.012
CCT7 (UniProt Q99832)	inactive: -0.016	inactive: 0.013	inactive: -0.027	inactive: 0.021	inactive: 0.008	inactive: -0.01	inactive: 0.049	inactive: 0.002	inactive: -0.023	inactive: -0.011	inactive: 0.018	inactive: 0.038	inactive: -0.014	inactive: -0.005	inactive: 0.017	inactive: -0.019	inactive: -0.016	inactive: 0.001	inactive: 0	inactive: -0.011
CBX5 (UniProt P45973)	inactive: 0.028	inactive: 0.026	inactive: -0.025	inactive: 0.018	inactive: 0.016	inactive: -0.073	active: -0.215	inactive: 0.066	inactive: 0.001	inactive: 0.016	inactive: -0.07	inactive: 0.037	inactive: 0.073	inactive: -0.011	inactive: 0.021	inactive: -0.035	inactive: -0.007	inactive: -0.054	inactive: 0.021	inactive: 0.009
CCNT1 (UniProt O60563)	inactive: -0.013	inactive: -0.016	inactive: 0.036	inactive: -0.005	inactive: -0.027	inactive: 0.009	inactive: -0.091	inactive: -0.014	inactive: 0.057	inactive: -0.005	inactive: 0.026	inactive: -0.032	inactive: -0.045	inactive: -0.016	inactive: 0.127	inactive: 0.012	inactive: -0.005	inactive: 0.046	inactive: 0.095	inactive: 0.012
CARM1 (UniProt Q86X55)	inactive: 0.002	inactive: 0.007	inactive: -0.005	inactive: -0.054	inactive: -0.021	inactive: -0.004	inactive: -0.098	inactive: 0.035	inactive: -0.005	inactive: -0.025	inactive: -0.015	inactive: 0.021	inactive: -0.053	inactive: -0.047	inactive: 0.001	inactive: -0.012	inactive: -0.039	inactive: 0.008	inactive: 0.023	inactive: -0.02
CC2D1B isoform 2 (UniProt Q5T0F9)	inactive: -0.017	inactive: 0.027	inactive: -0.027	inactive: 0.095	inactive: 0.007	inactive: -0.012	inactive: -0.004	inactive: 0.048	inactive: 0.012	inactive: 0.044	inactive: -0.019	inactive: -0.005	inactive: 0.015	inactive: -0.035	inactive: 0.062	inactive: -0.012	inactive: 0.048	inactive: 0.075	inactive: -0.003	inactive: -0.007
CCAR2 (UniProt Q8N163)	inactive: -0.007	inactive: -0.004	inactive: -0.047	inactive: -0.01	inactive: -0.031	inactive: 0.01	inactive: -0.057	inactive: 0.032	inactive: -0.002	inactive: 0.007	inactive: -0.052	inactive: -0.096	inactive: 0.001	inactive: 0.018	inactive: -0.02	inactive: 0.014	inactive: 0.011	inactive: 0.014	inactive: 0	inactive: 0.003
CASP9 (UniProt P55211)	inactive: -0.017	inactive: 0.001	inactive: -0.002	inactive: 0.025	inactive: 0.029	inactive: -0.061	inactive: -0.013	inactive: 0.005	inactive: 0.003	inactive: 0.045	inactive: -0.01	inactive: -0.043	inactive: -0.021	inactive: 0.039	inactive: -0.014	inactive: 0.023	inactive: -0.077	inactive: 0.014	inactive: 0.017	inactive: 0.052

Whole records as entered above. Values in the order: log2 fold change (vemurafenib)	log2 fold change [1]	log2 fold change (barasertib)	log2 fold change [2]	log2 fold change (volasertib)	log2 fold change [3]	log2 fold change [4]	log2 fold change [5]	log2 fold change (saracatinib)	log2 fold change (sotrastaurin)	log2 fold change (alvocidib)	log2 fold change (Tubastatin A)	log2 fold change [6]	log2 fold change (defactinib)	log2 fold change [7]	log2 fold change (encorafenib)	log2 fold change [8]	log2 fold change (alisertib)	log2 fold change [9]	log2 fold change (gefitinib)
CBR4 (UniProt Q8N4T8) as listed: inactive: 0.034	inactive: 0.051	inactive: 0.018	inactive: 0.091	inactive: -0.033	inactive: 0.008	inactive: 0.33	inactive: -0.021	inactive: -0.062	inactive: 0.017	inactive: 0.013	inactive: 0.036	inactive: -0.065	inactive: -0.016	inactive: 0.048	inactive: 0.033	inactive: -0.056	inactive: 0.064	inactive: -0.014	inactive: 0.012
CBFA2T3 (UniProt O75081) as listed: inactive: -0.043	inactive: 0.018	inactive: -0.055	inactive: 0.003	inactive: -0.02	inactive: -0.007	inactive: -0.023	inactive: -0.018	inactive: 0.021	inactive: 0.015	inactive: -0.039	inactive: -0.131	inactive: 0.028	inactive: 0.004	inactive: 0.051	inactive: 0.056	inactive: 0.037	inactive: 0.031	inactive: -0.042	inactive: 0.018
